# Laboratory results reported in the supplement of paper PMC5836539.
# Amino acid sequences for entries named in this document (tags omitted). A change or cut given only in a name is not applied to a line headed by its entry.
# UniProt P27708: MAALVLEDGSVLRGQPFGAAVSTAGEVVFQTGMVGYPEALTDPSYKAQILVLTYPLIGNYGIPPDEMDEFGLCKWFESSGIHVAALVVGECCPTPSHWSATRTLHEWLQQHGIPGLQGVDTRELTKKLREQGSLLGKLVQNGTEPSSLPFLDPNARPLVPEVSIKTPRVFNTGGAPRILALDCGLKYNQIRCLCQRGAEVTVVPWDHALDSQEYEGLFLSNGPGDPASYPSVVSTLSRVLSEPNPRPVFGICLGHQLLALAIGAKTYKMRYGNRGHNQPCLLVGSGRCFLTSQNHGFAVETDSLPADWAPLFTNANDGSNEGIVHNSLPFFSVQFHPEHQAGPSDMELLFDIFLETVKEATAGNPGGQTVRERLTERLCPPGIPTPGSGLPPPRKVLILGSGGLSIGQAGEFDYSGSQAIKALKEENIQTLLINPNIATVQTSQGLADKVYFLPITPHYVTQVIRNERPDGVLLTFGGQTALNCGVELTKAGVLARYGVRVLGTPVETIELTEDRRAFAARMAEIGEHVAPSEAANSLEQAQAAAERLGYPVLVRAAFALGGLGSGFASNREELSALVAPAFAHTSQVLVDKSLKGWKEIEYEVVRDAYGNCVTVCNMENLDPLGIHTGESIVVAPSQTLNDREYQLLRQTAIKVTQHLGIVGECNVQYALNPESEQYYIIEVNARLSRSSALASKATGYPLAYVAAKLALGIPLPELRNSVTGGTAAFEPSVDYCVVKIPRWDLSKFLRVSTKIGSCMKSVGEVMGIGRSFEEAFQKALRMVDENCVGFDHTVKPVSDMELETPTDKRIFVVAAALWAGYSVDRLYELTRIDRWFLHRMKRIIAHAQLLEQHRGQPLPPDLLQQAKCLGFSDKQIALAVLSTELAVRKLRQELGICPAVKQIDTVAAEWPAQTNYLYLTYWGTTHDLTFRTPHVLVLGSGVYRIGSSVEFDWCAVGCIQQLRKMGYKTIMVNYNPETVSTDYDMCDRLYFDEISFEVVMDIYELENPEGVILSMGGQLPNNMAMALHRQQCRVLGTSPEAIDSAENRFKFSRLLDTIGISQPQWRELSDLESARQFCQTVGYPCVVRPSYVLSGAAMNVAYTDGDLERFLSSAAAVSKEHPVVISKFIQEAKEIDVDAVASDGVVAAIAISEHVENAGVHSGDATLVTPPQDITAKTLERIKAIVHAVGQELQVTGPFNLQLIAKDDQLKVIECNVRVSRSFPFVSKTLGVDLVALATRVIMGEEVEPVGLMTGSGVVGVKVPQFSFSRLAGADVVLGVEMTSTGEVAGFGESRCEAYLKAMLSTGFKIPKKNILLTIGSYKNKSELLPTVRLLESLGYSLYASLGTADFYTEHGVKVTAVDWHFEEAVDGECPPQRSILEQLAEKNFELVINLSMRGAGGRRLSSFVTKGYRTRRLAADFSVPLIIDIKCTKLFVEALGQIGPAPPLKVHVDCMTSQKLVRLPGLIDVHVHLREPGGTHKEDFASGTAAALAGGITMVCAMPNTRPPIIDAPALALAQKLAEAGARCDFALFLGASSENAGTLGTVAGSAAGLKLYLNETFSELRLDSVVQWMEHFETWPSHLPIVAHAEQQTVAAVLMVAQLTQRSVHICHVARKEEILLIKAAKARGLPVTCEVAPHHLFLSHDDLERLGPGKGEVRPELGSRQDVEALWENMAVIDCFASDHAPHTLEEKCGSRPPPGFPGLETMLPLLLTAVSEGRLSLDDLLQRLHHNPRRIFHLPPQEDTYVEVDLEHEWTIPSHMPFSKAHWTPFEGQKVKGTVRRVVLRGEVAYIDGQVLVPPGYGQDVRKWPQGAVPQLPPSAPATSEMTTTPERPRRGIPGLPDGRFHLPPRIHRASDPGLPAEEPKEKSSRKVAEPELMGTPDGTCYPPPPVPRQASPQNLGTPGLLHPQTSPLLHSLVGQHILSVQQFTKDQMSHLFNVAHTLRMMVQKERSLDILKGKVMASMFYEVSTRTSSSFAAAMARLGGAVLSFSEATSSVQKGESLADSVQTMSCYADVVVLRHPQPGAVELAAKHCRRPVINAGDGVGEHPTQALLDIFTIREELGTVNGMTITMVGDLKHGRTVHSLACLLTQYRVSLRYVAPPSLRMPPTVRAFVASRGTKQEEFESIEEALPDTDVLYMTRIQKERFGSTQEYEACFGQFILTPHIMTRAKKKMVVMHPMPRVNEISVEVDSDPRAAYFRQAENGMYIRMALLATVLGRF
# UniProt Q92934: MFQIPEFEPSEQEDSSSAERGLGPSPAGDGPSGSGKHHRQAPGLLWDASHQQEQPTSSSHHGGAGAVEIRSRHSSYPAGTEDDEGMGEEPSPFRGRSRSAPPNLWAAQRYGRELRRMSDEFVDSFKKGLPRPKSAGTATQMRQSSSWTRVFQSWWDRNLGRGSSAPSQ
# UniProt Q9NQG5: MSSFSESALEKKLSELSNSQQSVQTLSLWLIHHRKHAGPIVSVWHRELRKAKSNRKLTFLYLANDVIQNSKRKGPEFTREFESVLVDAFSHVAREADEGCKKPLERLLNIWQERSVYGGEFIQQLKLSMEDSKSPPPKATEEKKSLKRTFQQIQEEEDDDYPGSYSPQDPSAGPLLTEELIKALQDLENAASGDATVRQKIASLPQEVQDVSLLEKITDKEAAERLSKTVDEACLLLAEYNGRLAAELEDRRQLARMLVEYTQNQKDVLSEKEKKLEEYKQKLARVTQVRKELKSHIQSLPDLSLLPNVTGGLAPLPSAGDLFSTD
# UniProt Q12906, whole entry, looked up: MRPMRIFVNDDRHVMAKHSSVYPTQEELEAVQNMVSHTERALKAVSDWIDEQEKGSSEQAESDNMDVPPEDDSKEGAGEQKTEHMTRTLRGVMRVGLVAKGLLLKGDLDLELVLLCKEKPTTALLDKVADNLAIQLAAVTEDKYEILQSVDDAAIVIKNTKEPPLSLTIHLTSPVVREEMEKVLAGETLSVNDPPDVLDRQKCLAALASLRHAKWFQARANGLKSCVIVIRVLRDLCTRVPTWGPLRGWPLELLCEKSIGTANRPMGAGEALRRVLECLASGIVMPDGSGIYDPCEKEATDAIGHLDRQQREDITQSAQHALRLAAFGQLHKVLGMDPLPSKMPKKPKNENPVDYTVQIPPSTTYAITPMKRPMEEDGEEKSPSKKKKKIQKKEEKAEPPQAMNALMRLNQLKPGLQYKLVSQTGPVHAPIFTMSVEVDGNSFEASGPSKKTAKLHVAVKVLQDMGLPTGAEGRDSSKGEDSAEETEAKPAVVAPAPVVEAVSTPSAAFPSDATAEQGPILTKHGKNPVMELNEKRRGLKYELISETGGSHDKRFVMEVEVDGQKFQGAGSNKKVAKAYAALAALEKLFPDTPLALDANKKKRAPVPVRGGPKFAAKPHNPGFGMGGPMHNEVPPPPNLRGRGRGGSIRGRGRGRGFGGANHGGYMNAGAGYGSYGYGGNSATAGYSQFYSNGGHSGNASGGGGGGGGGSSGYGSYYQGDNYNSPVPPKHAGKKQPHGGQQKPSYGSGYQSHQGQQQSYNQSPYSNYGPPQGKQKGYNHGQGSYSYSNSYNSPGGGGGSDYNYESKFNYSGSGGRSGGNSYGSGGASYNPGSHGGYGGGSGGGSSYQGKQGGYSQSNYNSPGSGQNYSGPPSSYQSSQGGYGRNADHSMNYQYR
# UniProt O60841: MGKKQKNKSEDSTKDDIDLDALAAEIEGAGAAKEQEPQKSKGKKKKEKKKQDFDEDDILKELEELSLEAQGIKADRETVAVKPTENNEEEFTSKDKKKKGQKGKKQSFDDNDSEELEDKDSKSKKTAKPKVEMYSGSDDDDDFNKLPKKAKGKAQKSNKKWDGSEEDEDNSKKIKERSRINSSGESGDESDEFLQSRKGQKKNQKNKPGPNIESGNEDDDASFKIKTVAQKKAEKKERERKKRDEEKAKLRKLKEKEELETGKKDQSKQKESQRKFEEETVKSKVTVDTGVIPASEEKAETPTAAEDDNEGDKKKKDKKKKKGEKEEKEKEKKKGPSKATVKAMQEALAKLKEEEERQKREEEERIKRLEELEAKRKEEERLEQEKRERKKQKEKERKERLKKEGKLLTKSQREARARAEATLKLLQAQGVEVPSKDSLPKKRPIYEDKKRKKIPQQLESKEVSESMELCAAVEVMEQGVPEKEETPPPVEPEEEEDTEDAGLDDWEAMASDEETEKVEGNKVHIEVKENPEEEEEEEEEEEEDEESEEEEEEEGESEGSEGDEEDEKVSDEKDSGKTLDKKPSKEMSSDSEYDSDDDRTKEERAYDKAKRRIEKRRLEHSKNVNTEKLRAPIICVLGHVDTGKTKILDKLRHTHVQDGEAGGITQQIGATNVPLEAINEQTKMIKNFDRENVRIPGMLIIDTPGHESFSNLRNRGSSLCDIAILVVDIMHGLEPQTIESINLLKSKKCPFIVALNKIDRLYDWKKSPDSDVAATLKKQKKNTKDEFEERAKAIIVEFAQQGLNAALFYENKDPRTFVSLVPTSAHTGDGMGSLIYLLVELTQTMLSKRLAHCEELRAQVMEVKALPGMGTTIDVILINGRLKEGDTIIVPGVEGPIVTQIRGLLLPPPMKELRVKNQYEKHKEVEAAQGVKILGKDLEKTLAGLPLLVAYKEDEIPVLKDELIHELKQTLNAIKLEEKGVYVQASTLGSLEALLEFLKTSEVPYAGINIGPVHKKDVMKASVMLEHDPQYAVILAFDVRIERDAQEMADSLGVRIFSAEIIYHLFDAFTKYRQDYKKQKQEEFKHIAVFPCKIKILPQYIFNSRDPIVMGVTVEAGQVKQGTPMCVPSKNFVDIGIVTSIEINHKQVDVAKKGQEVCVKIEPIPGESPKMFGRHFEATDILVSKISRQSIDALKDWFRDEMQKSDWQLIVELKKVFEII
# UniProt Q01518, whole entry, looked up: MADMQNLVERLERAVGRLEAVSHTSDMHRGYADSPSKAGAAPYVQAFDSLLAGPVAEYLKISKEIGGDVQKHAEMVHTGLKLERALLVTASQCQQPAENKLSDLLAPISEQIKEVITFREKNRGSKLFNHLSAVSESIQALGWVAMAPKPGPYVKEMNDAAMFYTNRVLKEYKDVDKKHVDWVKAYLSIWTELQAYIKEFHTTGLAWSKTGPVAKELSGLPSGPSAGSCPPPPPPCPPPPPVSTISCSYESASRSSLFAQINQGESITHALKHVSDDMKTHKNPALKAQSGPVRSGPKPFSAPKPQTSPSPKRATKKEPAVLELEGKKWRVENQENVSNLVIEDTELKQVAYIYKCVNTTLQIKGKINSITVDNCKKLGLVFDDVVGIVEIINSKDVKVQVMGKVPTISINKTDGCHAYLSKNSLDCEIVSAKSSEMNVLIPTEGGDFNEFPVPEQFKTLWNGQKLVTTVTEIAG
# UniProt Q92522: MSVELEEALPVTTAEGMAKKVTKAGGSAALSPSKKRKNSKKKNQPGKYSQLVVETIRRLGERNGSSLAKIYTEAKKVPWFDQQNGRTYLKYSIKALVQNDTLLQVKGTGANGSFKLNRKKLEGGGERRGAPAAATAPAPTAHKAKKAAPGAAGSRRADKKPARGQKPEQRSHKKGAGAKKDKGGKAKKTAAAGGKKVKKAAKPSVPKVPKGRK
# UniProt P40121: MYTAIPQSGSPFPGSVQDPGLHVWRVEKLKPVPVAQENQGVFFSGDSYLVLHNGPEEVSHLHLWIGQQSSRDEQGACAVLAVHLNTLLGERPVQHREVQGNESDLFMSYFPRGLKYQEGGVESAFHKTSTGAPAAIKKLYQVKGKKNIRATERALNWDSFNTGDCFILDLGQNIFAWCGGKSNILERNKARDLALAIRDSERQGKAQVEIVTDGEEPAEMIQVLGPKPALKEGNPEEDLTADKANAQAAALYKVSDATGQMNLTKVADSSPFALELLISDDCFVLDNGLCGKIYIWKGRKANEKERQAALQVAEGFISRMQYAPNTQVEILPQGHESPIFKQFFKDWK
# UniProt Q9BTL3: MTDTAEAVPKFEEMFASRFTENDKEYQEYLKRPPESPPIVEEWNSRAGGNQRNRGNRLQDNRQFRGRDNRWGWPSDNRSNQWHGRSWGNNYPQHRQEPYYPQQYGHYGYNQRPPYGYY
# UniProt Q96I25: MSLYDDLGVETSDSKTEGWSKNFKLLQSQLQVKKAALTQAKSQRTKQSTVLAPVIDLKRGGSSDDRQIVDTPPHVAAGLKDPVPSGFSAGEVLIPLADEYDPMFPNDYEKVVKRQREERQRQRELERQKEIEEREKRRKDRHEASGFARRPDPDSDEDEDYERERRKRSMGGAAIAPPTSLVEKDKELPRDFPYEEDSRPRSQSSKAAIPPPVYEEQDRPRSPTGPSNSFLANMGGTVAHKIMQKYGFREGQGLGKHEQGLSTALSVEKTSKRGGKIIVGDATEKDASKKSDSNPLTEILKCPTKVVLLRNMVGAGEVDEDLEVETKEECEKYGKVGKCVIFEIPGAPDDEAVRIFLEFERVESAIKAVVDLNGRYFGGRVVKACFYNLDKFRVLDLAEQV
# UniProt Q9BUL9: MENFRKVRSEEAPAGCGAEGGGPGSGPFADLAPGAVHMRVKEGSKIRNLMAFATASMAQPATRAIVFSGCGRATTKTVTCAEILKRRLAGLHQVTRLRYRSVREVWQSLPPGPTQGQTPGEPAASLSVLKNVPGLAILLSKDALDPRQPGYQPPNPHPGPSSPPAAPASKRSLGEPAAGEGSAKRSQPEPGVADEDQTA
# ± gives the standard deviation of the averaged measurements. Single values are uncertain here, since repeats match poorly.
# Tests used:
# XL888 [1] = compound: T1, CC[C@@H](C)Nc1cc(C(=O)N[C@H]2C[C@H]3CC[C@@H](C2)N3c2ccc(C(=O)C3CC3)cn2)c(C)cc1C(N)=O [XL888]; experiment: phosphopeptide melting temperature shift (XL888 minus DMSO); higher = stabilised by drug treatment; settings: 100 µM; treatment time 2 h; layout: intact cells; SK-Mel 28
# Description: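 Phospho-TPP in intact SK-Mel 28 cells treated with 100 uM XL888 or DMSO for 2 h, heated at 10 temperatures (37-67 C) for 3 min, soluble fraction TMT10plex-labelled and TiO2 phospho-enriched. Melting curves were fitted per phosphopeptide; the value is the melting point difference (drug minus vehicle) in each of two biological replicates.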
# XL888 [2] = compound: T1, XL888; experiment: as above; settings: 100 µM; treatment time 2 h; layout: intact cells; SK-Mel 24
# Description: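 Phospho-TPP in intact SK-Mel 24 cells treated with 100 uM XL888 or DMSO for 2 h, heated at 10 temperatures (37-67 C) for 3 min, soluble fraction TMT10plex-labelled and TiO2 phospho-enriched. Melting curves were fitted per phosphopeptide; the value is the melting point difference (drug minus vehicle) in each of two biological replicates.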
target,measurement,setting,value
CAD phosphosite_1859 (phosphosite position: 1859) (UniProt P27708),phosphopeptide melting temperature shift,XL888 [1],0.569 °C
same,phosphopeptide melting temperature shift,XL888 [2],0.0156 °C
MATR3 phosphosite_598 (phosphosite position: 598) (UniProt P43243),phosphopeptide melting temperature shift,XL888 [1],3.68 ± 3.8 °C
same,phosphopeptide melting temperature shift,XL888 [2],-0.405 °C
UniProt Q14C86-3_phosphosite_966 (phosphosite position: 966),phosphopeptide melting temperature shift,XL888 [1],0.932 ± 0.22 °C
same,phosphopeptide melting temperature shift,XL888 [2],0.741 °C
KLC2 phosphosite_582 (phosphosite position: 582) (UniProt Q9H0B6),phosphopeptide melting temperature shift,XL888 [1],0.16 ± 0.4 °C
same,phosphopeptide melting temperature shift,XL888 [2],0.45 °C
UniProt Q6ICG6-3_phosphosite_233 (phosphosite position: 233),phosphopeptide melting temperature shift,XL888 [1],3.67 °C
same,phosphopeptide melting temperature shift,XL888 [2],-1.32 °C
RPLP0 phosphosite_307 (phosphosite position: 307) (UniProt P05388),phosphopeptide melting temperature shift,XL888 [1],-0.113 ± 0.26 °C
same,phosphopeptide melting temperature shift,XL888 [2],-3.08 ± 1 °C
BAD phosphosite_75 (phosphosite position: 75) (UniProt Q92934),phosphopeptide melting temperature shift,XL888 [1],0.477 °C
same,phosphopeptide melting temperature shift,XL888 [2],-0.442 °C
MAP1B phosphosite_1965 (phosphosite position: 1965) (UniProt P46821),phosphopeptide melting temperature shift,XL888 [1],-1.74 °C
same,phosphopeptide melting temperature shift,XL888 [2],1.14 ± 0.44 °C
RPRD1B phosphosite_134 (phosphosite position: 134) (UniProt Q9NQG5),phosphopeptide melting temperature shift,XL888 [1],0.807 ± 0.19 °C
same,phosphopeptide melting temperature shift,XL888 [2],0.294 ± 0.29 °C
ILF3 phosphosite_482 (phosphosite position: 482) (UniProt Q12906),phosphopeptide melting temperature shift,XL888 [1],-0.42 ± 0.47 °C
same,phosphopeptide melting temperature shift,XL888 [2],0.36 °C
UniProt Q5JTD0-4_phosphosite_225 (phosphosite position: 225),phosphopeptide melting temperature shift,XL888 [1],1.56 °C
same,phosphopeptide melting temperature shift,XL888 [2],1.44 °C
CCDC6 phosphosite_419 (phosphosite position: 419) (UniProt Q16204),phosphopeptide melting temperature shift,XL888 [1],2.12 ± 0.19 °C
same,phosphopeptide melting temperature shift,XL888 [2],0.206 °C
THRAP3 phosphosite_248 (phosphosite position: 248) (UniProt Q9Y2W1),phosphopeptide melting temperature shift,XL888 [1],4.76 °C
same,phosphopeptide melting temperature shift,XL888 [2],1.08 °C
UniProt P11137-3_phosphosite_1778 (phosphosite position: 1778),phosphopeptide melting temperature shift,XL888 [1],2.67 ± 1.5 °C
same,phosphopeptide melting temperature shift,XL888 [2],1.53 °C
EIF5B phosphosite_113 (phosphosite position: 113) (UniProt O60841),phosphopeptide melting temperature shift,XL888 [1],1.37 ± 0.45 °C
same,phosphopeptide melting temperature shift,XL888 [2],2.35 °C
UniProt Q53GS9-3_phosphosite_82 (phosphosite position: 82),phosphopeptide melting temperature shift,XL888 [1],1.6 ± 0.47 °C
same,phosphopeptide melting temperature shift,XL888 [2],1.2 °C
UniProt Q01518-2_phosphosite_307 (phosphosite position: 307),phosphopeptide melting temperature shift,XL888 [1],1.66 ± 1.6 °C
same,phosphopeptide melting temperature shift,XL888 [2],1.22 °C
DHX16 phosphosite_160 (phosphosite position: 160) (UniProt O60231),phosphopeptide melting temperature shift,XL888 [1],-2.99 °C
same,phosphopeptide melting temperature shift,XL888 [2],0.176 °C
H1FX phosphosite_31 (phosphosite position: 31) (UniProt Q92522),phosphopeptide melting temperature shift,XL888 [1],-1.38 ± 2 °C
same,phosphopeptide melting temperature shift,XL888 [2],-1.25 °C
CAPG phosphosite_337 (phosphosite position: 337) (UniProt P40121),phosphopeptide melting temperature shift,XL888 [1],-0.313 ± 0.12 °C
same,phosphopeptide melting temperature shift,XL888 [2],0.115 °C
UniProt Q07866-6_phosphosite_622 (phosphosite position: 622),phosphopeptide melting temperature shift,XL888 [1],-1.31 °C
same,phosphopeptide melting temperature shift,XL888 [2],0.108 °C
UniProt Q6PJT7-5_phosphosite_490 (phosphosite position: 490),phosphopeptide melting temperature shift,XL888 [1],3.04 °C
same,phosphopeptide melting temperature shift,XL888 [2],0.365 °C
UniProt Q8WUA7-3_phosphosite_85 (phosphosite position: 85),phosphopeptide melting temperature shift,XL888 [1],-0.225 ± 0.077 °C
same,phosphopeptide melting temperature shift,XL888 [2],1.2 ± 0.49 °C
UniProt Q9UDY2-3_phosphosite_1136 (phosphosite position: 1136),phosphopeptide melting temperature shift,XL888 [1],1.47 ± 0.84 °C
same,phosphopeptide melting temperature shift,XL888 [2],-0.21 ± 0.99 °C
UniProt Q9H7D7-3_phosphosite_121 (phosphosite position: 121),phosphopeptide melting temperature shift,XL888 [1],2.04 ± 0.26 °C
same,phosphopeptide melting temperature shift,XL888 [2],2.5 °C
UniProt Q6IQ49-3_phosphosite_183 (phosphosite position: 183),phosphopeptide melting temperature shift,XL888 [1],1.86 ± 1.7 °C
same,phosphopeptide melting temperature shift,XL888 [2],0.183 °C
EPRS phosphosite_886 (phosphosite position: 886) (UniProt P07814),phosphopeptide melting temperature shift,XL888 [1],1.24 °C
same,phosphopeptide melting temperature shift,XL888 [2],1.96 °C
RPS3 phosphosite_221 (phosphosite position: 221) (UniProt P23396),phosphopeptide melting temperature shift,XL888 [1],-0.697 ± 0.31 °C
same,phosphopeptide melting temperature shift,XL888 [2],-1.96 ± 0.15 °C
MPHOSPH8 phosphosite_51 (phosphosite position: 51) (UniProt Q99549),phosphopeptide melting temperature shift,XL888 [1],0.727 °C
same,phosphopeptide melting temperature shift,XL888 [2],2.46 °C
UniProt Q9BTL3_phosphosite_36 (phosphosite position: 36),phosphopeptide melting temperature shift,XL888 [1],1.66 ± 1 °C
same,phosphopeptide melting temperature shift,XL888 [2],1.6 °C
RBM17 phosphosite_155 (phosphosite position: 155) (UniProt Q96I25),phosphopeptide melting temperature shift,XL888 [1],-0.0209 ± 0.13 °C
same,phosphopeptide melting temperature shift,XL888 [2],0.991 °C
UniProt Q8NDI1-3_phosphosite_987 (phosphosite position: 987),phosphopeptide melting temperature shift,XL888 [1],1.55 °C
same,phosphopeptide melting temperature shift,XL888 [2],0.276 ± 0.29 °C
STAT1 phosphosite_727 (phosphosite position: 727) (UniProt P42224),phosphopeptide melting temperature shift,XL888 [1],-1.17 ± 0.93 °C
same,phosphopeptide melting temperature shift,XL888 [2],-0.308 °C
UniProt O00203-3_phosphosite_701 (phosphosite position: 701),phosphopeptide melting temperature shift,XL888 [1],0.938 ± 0.43 °C
same,phosphopeptide melting temperature shift,XL888 [2],-0.0747 °C
RPP25 phosphosite_162 (phosphosite position: 162) (UniProt Q9BUL9),phosphopeptide melting temperature shift,XL888 [1],0.533 °C
same,phosphopeptide melting temperature shift,XL888 [2],0.976 °C
USP24 phosphosite_2561 (phosphosite position: 2561) (UniProt Q9UPU5),phosphopeptide melting temperature shift,XL888 [1],-0.013 ± 0.044 °C
same,phosphopeptide melting temperature shift,XL888 [2],0.403 °C
SET phosphosite_7 (phosphosite position: 7) (UniProt Q01105),phosphopeptide melting temperature shift,XL888 [1],0.0632 ± 0.03 °C
same,phosphopeptide melting temperature shift,XL888 [2],1.29 ± 0.51 °C

# 3 entries from above in another layout.
target	measurement	setting	value
KLC2 phosphosite_582 (phosphosite position: 582) (UniProt Q9H0B6)	phosphopeptide melting temperature shift	XL888 [1]	0.16 ± 0.4 °C
same	phosphopeptide melting temperature shift	XL888 [2]	0.45 °C
UniProt Q6ICG6-3_phosphosite_233 (phosphosite position: 233)	phosphopeptide melting temperature shift	XL888 [1]	3.67 °C
